Further values from the same series stand in other lists.
System: L. acidophilus NCFM
Assay: RNA-seq transcriptional analysis of L. acidophilus NCFM growing on plant glycosides
Assay type: cell-based, Lactobacillus acidophilus
[1] = LBA0160 Anaerobic ribonucleoside triphosphate reductase, COG F
[2] = LBA0197 Oligopeptide binding protein, COG E
[3] = LBA0198 Peptide binding protein, COG E
[4] = LBA0225 6-p-beta-glucosidase, COG G
[5] = LBA0227 Celiohiose-specific PTS IIC, COG G
[6] = LBA0228 Transcriptional regulator, COG G
[7] = LBA0455 Mannose-specific PTS system component IIC, COG G
[8] = LBA0456 Mannose-specific PTS system component IID, COG G
[9] = LBA0491 Cellobiose-specific PTS IIC, COG G
[10] = LBA0503 ABC transporter permease, COG G
[11] = LBA0606 PTS system arbutin-like IIBC component, COG G
[12] = LBA0609 PTS enzyme II ABC component, COG G
[13] = LBA0680 Glycogen branching enzyme, COG G
[14] = LBA0681 Glucose-1-phosphate adenylyltransferase, COG G
[15] = LBA0682 Glucose-1-phosphate adenylyltransferase, COG G
[16] = LBA0683 Glycogen synthase, COG G
[17] = LBA0685 Glycogen phosphorylase, COG G
[18] = LBA0686 Amylopullulanase, COG G
[19] = LBA0687 Phosphoglucomutase, COG G
[20] = LBA0724 Transcription antiterminator, COG G
[21] = LBA0726 Phospho-beta-galactosidase II, COG G
[22] = LBA0874 Phospho-beta-galactosidase I, COG G
[23] = LBA0875 Transcriptional regulator, COG G
[24] = LBA0876 Cellobiose-specific PTS IIC, COG G
[25] = LBA0877 Cellobiose-specific PTS IIA, COG G
[26] = LBA0986 Galactose mutarotase related ensyme, COG G
[27] = LBA1102 Transmembrane protein, COG G
[28] = LBA1400 Oligopeptide ABC transporter substrate binding protein, COG E
[29] = LBA1433 Dihydroxyacetone kinase, COG G
[30] = LBA1434 Dihydroxyacetone kinase, COG G

N#C[C@H](O[C@@H]1O[C@H](CO[C@@H]2O[C@H](CO)[C@@H](O)[C@H](O)[C@H]2O)[C@@H](O)[C@H](O)[C@H]1O)c1ccccc1 [Amygdalin]
Log2 differential normalized TPM ratio compared to glucose (LBA0146 PTS system HA, COG G): 3.5 | Log2 differential normalized TPM ratio compared to lactose (LBA0146 PTS system HA, COG G): 1.9 | Transcripts per million (rpm) (LBA0146 PTS system HA, COG G): 74.1 rpm | Log2 differential normalized TPM ratio compared to glucose [1]: 2.3 | Log2 differential normalized TPM ratio compared to lactose [1]: 1.4 | Transcripts per million (rpm) [1]: 696.6 rpm | Log2 differential normalized TPM ratio compared to glucose [2]: −0.8 | Log2 differential normalized TPM ratio compared to lactose [2]: 1.5 | Transcripts per million (rpm) [2]: 30.6 rpm | Log2 differential normalized TPM ratio compared to glucose [3]: −0.8 | Log2 differential normalized TPM ratio compared to lactose [3]: 2.2 | Transcripts per million (rpm) [3]: 20.2 rpm | Log2 differential normalized TPM ratio compared to glucose [4]: 6.5 | Log2 differential normalized TPM ratio compared to lactose [4]: 6.9 | Transcripts per million (rpm) [4]: 2089.8 rpm | Log2 differential normalized TPM ratio compared to glucose [5]: 9.9 | Log2 differential normalized TPM ratio compared to lactose [5]: 9.6 | Transcripts per million (rpm) [5]: 2893.2 rpm | Log2 differential normalized TPM ratio compared to glucose [6]: 6.3 | Log2 differential normalized TPM ratio compared to lactose [6]: 6.3 | Transcripts per million (rpm) [6]: 940.7 rpm | Log2 differential normalized TPM ratio compared to glucose [7]: 1.6 | Log2 differential normalized TPM ratio compared to lactose [7]: 0.6 | Transcripts per million (rpm) [7]: 714.4 rpm | Log2 differential normalized TPM ratio compared to glucose [8]: 1.7 | Log2 differential normalized TPM ratio compared to lactose [8]: 0.6 | Transcripts per million (rpm) [8]: 1293.7 rpm | Log2 differential normalized TPM ratio compared to glucose [9]: 4.7 | Log2 differential normalized TPM ratio compared to lactose [9]: 2.6 | Transcripts per million (rpm) [9]: 154.2 rpm | Log2 differential normalized TPM ratio compared to glucose [10]: 1.8 | Log2 differential normalized TPM ratio compared to lactose [10]: 0.6 | Transcripts per million (rpm) [10]: 8.9 rpm | Log2 differential normalized TPM ratio compared to glucose (LBA0505 Fructosidase, COG G): 1.9 | Log2 differential normalized TPM ratio compared to lactose (LBA0505 Fructosidase, COG G): 1 | Transcripts per million (rpm) (LBA0505 Fructosidase, COG G): 11.1 rpm | Log2 differential normalized TPM ratio compared to glucose [11]: 4.9 | Log2 differential normalized TPM ratio compared to lactose [11]: 2.7 | Transcripts per million (rpm) [11]: 105.7 rpm | Log2 differential normalized TPM ratio compared to glucose [12]: 3.4 | Log2 differential normalized TPM ratio compared to lactose [12]: 1.8 | Transcripts per million (rpm) [12]: 422.6 rpm | Log2 differential normalized TPM ratio compared to glucose [13]: 2.1 | Log2 differential normalized TPM ratio compared to lactose [13]: .2 | Transcripts per million (rpm) [13]: 237.7 rpm | Log2 differential normalized TPM ratio compared to glucose [14]: 2.8 | Log2 differential normalized TPM ratio compared to lactose [14]: 1 | Transcripts per million (rpm) [14]: 234.7 rpm | Log2 differential normalized TPM ratio compared to glucose [15]: 3 | Log2 differential normalized TPM ratio compared to lactose [15]: 1.2 | Transcripts per million (rpm) [15]: 319.1 rpm | Log2 differential normalized TPM ratio compared to glucose [16]: 3.1 | Log2 differential normalized TPM ratio compared to lactose [16]: 1.2 | Transcripts per million (rpm) [16]: 426.2 rpm | Log2 differential normalized TPM ratio compared to glucose [17]: 3.2 | Log2 differential normalized TPM ratio compared to lactose [17]: 1.4 | Transcripts per million (rpm) [17]: 470.1 rpm | Log2 differential normalized TPM ratio compared to glucose [18]: 3.1 | Log2 differential normalized TPM ratio compared to lactose [18]: 1.3 | Transcripts per million (rpm) [18]: 453.3 rpm | Log2 differential normalized TPM ratio compared to glucose [19]: 2.3 | Log2 differential normalized TPM ratio compared to lactose [19]: 0.6 | Transcripts per million (rpm) [19]: 487.4 rpm | Log2 differential normalized TPM ratio compared to glucose [20]: 6.4 | Log2 differential normalized TPM ratio compared to lactose [20]: 4.6 | Transcripts per million (rpm) [20]: 2061.6 rpm | Log2 differential normalized TPM ratio compared to glucose (LBA0725 PTS EII system, COG G): 9.7 | Log2 differential normalized TPM ratio compared to lactose (LBA0725 PTS EII system, COG G): 7 | Transcripts per million (rpm) (LBA0725 PTS EII system, COG G): 1214.2 rpm | Log2 differential normalized TPM ratio compared to glucose [21]: 7.2 | Log2 differential normalized TPM ratio compared to lactose [21]: 4.5 | Transcripts per million (rpm) [21]: 2460.5 rpm | Log2 differential normalized TPM ratio compared to glucose [22]: 3.3 | Log2 differential normalized TPM ratio compared to lactose [22]: 2.2 | Transcripts per million (rpm) [22]: 116.7 rpm | Log2 differential normalized TPM ratio compared to glucose [23]: 2.3 | Log2 differential normalized TPM ratio compared to lactose [23]: 1.9 | Transcripts per million (rpm) [23]: 47.5 rpm | Log2 differential normalized TPM ratio compared to glucose [24]: 4.4 | Log2 differential normalized TPM ratio compared to lactose [24]: 1.5 | Transcripts per million (rpm) [24]: 1700.2 rpm | Log2 differential normalized TPM ratio compared to glucose [25]: 4.6 | Log2 differential normalized TPM ratio compared to lactose [25]: 1.5 | Transcripts per million (rpm) [25]: 1190.8 rpm | Log2 differential normalized TPM ratio compared to glucose (LBA0911 Aminopeptidase, COG E): 3.5 | Log2 differential normalized TPM ratio compared to lactose (LBA0911 Aminopeptidase, COG E): 2.4 | Transcripts per million (rpm) (LBA0911 Aminopeptidase, COG E): 1553.6 rpm | Log2 differential normalized TPM ratio compared to glucose [26]: 3.2 | Log2 differential normalized TPM ratio compared to lactose [26]: 2.6 | Transcripts per million (rpm) [26]: 704 rpm | Log2 differential normalized TPM ratio compared to glucose (LBA1022 Arginase, COG E): −1.7 | Log2 differential normalized TPM ratio compared to lactose (LBA1022 Arginase, COG E): −1.9 | Transcripts per million (rpm) (LBA1022 Arginase, COG E): 63.7 rpm | Log2 differential normalized TPM ratio compared to glucose (LBA1055 Mutator protein, COG F): 1.9 | Log2 differential normalized TPM ratio compared to lactose (LBA1055 Mutator protein, COG F): 2.2 | Transcripts per million (rpm) (LBA1055 Mutator protein, COG F): 45.4 rpm | Log2 differential normalized TPM ratio compared to glucose [27]: 0.1 | Log2 differential normalized TPM ratio compared to lactose [27]: −1.2 | Transcripts per million (rpm) [27]: 31.2 rpm | Log2 differential normalized TPM ratio compared to glucose [28]: 2.3 | Log2 differential normalized TPM ratio compared to lactose [28]: 1.3 | Transcripts per million (rpm) [28]: 43.9 rpm | Log2 differential normalized TPM ratio compared to glucose [29]: 6 | Log2 differential normalized TPM ratio compared to lactose [29]: 3.5 | Transcripts per million (rpm) [29]: 318.7 rpm | Log2 differential normalized TPM ratio compared to glucose [30]: 6.7 | Log2 differential normalized TPM ratio compared to lactose [30]: 3.4 | Transcripts per million (rpm) [30]: 305.9 rpm
